Among the data in PMC10227007 are binding values, retold here.

Results are given in words; binding and its absence hold for the method and conditions named. For some of these results: Binding can be weak; no strength is given. For some of these results: In cells and extracts the contact can be indirect. For some of these results: Sequences can lack the tags named with a protein.

The target of assay [1] is T1, OsSERK2, bait from pBT3-STE (Oryza sativa japonica cv. Zhonghua 11 (ZH11)) (UniProt Q7XV05).
T1 sequence: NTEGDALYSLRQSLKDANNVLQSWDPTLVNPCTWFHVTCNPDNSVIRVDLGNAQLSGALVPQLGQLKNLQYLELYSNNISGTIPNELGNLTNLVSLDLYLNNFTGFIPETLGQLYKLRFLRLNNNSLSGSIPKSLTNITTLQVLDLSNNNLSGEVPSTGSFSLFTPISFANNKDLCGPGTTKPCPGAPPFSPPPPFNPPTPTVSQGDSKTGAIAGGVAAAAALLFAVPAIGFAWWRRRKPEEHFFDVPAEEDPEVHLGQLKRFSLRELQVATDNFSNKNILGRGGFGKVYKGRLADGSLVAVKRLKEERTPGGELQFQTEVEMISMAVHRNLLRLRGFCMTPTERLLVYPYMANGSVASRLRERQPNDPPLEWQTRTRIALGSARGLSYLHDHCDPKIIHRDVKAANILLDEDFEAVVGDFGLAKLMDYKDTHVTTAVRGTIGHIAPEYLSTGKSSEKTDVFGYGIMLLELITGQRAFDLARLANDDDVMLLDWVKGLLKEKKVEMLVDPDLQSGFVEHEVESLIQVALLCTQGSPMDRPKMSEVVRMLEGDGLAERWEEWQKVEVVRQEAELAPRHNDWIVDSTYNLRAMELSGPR
The assay can be described thus: two-hybrid; split-ubiquitin membrane yeast two-hybrid (DUALmembrane system): pBT3-STE-OsSERK/SERLs and pPR3-N-COG1 in yeast strain NMY51.

Assay [2] deals with T2, OsSERK1, bait from pBT3-STE (Oryza sativa japonica cv. Zhonghua 11 (ZH11)) (UniProt Q6Z4U4).
T2 sequence: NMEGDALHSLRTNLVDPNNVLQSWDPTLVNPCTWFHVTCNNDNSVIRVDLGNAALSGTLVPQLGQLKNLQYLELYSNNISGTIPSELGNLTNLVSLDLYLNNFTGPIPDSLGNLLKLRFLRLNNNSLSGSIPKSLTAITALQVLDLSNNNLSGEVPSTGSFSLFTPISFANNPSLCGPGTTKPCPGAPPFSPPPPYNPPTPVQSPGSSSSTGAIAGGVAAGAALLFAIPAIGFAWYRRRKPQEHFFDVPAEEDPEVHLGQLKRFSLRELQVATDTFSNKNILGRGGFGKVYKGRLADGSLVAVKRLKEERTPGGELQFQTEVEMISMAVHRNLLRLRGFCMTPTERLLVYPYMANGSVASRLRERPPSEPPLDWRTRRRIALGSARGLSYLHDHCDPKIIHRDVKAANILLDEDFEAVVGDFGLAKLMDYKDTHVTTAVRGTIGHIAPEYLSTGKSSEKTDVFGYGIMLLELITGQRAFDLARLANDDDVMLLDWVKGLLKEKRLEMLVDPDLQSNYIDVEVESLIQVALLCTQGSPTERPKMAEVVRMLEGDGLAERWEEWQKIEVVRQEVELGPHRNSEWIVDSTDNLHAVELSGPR
The assay is described as above.

Assay [3] has as its target T3, OsSERK1-cCFP (Oryza sativa japonica cv. Zhonghua 11 (ZH11)) (UniProt Q6Z4U4).
T3 sequence: T2 sequence
The assay is described as follows: split reporter; BiFC in rice protoplasts, nVenus and cCFP fusions co-expressed, YFP fluorescence by confocal microscopy (Leica TCS SP5); in one experiment the protoplasts were kept at 28 °C or 4 °C for 24 h and the intensity measured by Image J.

In assay [4] the target is T4, OsSERK2-cCFP (Oryza sativa japonica cv. Zhonghua 11 (ZH11)) (UniProt Q7XV05).
T4 sequence: T1 sequence
Described as above.

Regarding “COG1 (Chilling-tolerance in Gengdao/japonica rice 1), prey from pPR3-N-COG1 (receptor)”, the binding entry in assay [1] and in assay [2] was “binds” throughout.

Take COG1-nVenus (receptor): the binding entry in assay [3] and in assay [4] was “no binding” each time.
